Results: PMC10250186
No constants are given. Whether binding was seen depends on the method and setting. Some entries that bind do so weakly or less than the wild type.

Chains of the proteins cited; added tags and fusions are not shown.
UniProt Q15046: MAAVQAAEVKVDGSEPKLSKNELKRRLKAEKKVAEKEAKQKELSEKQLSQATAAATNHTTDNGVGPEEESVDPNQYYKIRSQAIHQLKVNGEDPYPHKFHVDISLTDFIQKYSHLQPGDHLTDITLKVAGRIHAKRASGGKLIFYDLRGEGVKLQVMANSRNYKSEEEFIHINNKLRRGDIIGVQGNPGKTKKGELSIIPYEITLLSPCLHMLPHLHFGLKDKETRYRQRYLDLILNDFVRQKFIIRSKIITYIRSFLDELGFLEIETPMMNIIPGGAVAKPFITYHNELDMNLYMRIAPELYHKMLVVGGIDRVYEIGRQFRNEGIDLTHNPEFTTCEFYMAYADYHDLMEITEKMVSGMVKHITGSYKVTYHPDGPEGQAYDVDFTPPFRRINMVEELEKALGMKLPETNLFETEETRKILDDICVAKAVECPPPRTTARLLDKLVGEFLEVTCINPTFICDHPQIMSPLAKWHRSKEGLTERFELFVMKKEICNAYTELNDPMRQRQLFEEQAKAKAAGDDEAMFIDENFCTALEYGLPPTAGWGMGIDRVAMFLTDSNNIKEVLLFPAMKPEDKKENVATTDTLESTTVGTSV

B1: MARS1, P56192 1-900 (protein)
chain: MRLFVSDGVPGCLPVLAAAGRARGRAEVLISTVGPEDCVVPFLTRPKVPVLQLDSGNYLFSTSAICRYFFLLSGWEQDDLTNQWLEWEATELQPALSAALYYLVVQGKKGEDVLGSVRRALTHIDHSLSRQNCPFLAGETESLADIVLWGALYPLLQDPAYLPEELSALHSWFQTLSTQEPCQRAAETVLKQQGVLALRPYLQKQPQPSPAEGRAVTNEPEEEELATLSEEEIAMAVTAWEKGLESLPPLRPQQNPVLPVAGERNVLITSALPYVNNVPHLGNIIGCVLSADVFARYSRLRQWNTLYLCGTDEYGTATETKALEEGLTPQEICDKYHIIHADIYRWFNISFDIFGRTTTPQQTKITQDIFQQLLKRGFVLQDTVEQLRCEHCARFLADRFVEGVCPFCGYEEARGDQCDKCGKLINAVELKKPQCKVCRSCPVVQSSQHLFLDLPKLEKRLEEWLGRTLPGSDWTPNAQFITRSWLRDGLKPRCITRDLKWGTPVPLEGFEDKVFYVWFDATIGYLSITANYTDQWERWWKNPEQVDLYQFMAKDNVPFHSLVFPCSALGAEDNYTLVSHLIATEYLNYEDGKFSKSRGVGVFGDMAQDTGIPADIWRFYLLYIRPEGQDSAFSWTDLLLKNNSELLNNLGNFINRAGMFVSKFFGGYVPEMVLTPDDQRLLAHVTLELQHYHQLLEKVRIRDALRSILTISRHGNQYIQVNEPWKRIKGSEADRQRAGTVTGLAVNIAALLSVMLQPYMPTVSATIQAQLQLPPPACSILLTNFLCTLPAGHQIGTVSPLFQKLENDQIESLRQRFGGGQAKTSPKPAVVETVTTAKPQQIQALMDEVTKQGNIVRELKAQKADKNEVAAEVAKLLDLKKQLAVAEGKPPEAPKGKKKK
B2: RARS1, P54136 1-660 (protein)
chain: MDVLVSECSARLLQQEEEIKSLTAEIDRLKNCGCLGASPNLEQLQEENLKLKYRLNILRKSLQAERNKPTKNMINIISRLQEVFGHAIKAAYPDLENPPLLVTPSQQAKFGDYQCNSAMGISQMLKTKEQKVNPREIAENITKHLPDNECIEKVEIAGPGFINVHLRKDFVSEQLTSLLVNGVQLPALGENKKVIVDFSSPNIAKEMHVGHLRSTIIGESISRLFEFAGYDVLRLNHVGDWGTQFGMLIAHLQDKFPDYLTVSPPIGDLQVFYKESKKRFDTEEEFKKRAYQCVVLLQGKNPDITKAWKLICDVSRQELNKIYDALDVSLIERGESFYQDRMNDIVKEFEDRGFVQVDDGRKIVFVPGCSIPLTIVKSDGGYTYDTSDLAAIKQRLFEEKADMIIYVVDNGQSVHFQTIFAAAQMIGWYDPKVTRVFHAGFGVVLGEDKKKFKTRSGETVRLMDLLGEGLKRSMDKLKEKERDKVLTAEELNAAQTSVAYGCIKYADLSHNRLNDYIFSFDKMLDDRGNTAAYLLYAFTRIRSIARLANIDEEMLQKAARETKILLDHEKEWKLGRCILRFPEILQKILDDLFLHTLCDYIYELATAFTEFYDSCYCVEKDRQTGKILKVNMWRMLLCEAVAAVMAKGFDILGIKPVQRM

How the values were obtained:
[1] = molecular target: glutamyl-prolyl-tRNA synthetase (EPRS1) (human (endogenous in Calu-3 and A549-hACE2)) (UniProt P07814); assay: SEC
[2] = molecular target: T1, glutamyl-prolyl-tRNA synthetase (EPRS1) (human (endogenous in Calu-3 and A549-hACE2)), P07814; assay: SEC; settings: remark: other sources report otherwise
T1 chain: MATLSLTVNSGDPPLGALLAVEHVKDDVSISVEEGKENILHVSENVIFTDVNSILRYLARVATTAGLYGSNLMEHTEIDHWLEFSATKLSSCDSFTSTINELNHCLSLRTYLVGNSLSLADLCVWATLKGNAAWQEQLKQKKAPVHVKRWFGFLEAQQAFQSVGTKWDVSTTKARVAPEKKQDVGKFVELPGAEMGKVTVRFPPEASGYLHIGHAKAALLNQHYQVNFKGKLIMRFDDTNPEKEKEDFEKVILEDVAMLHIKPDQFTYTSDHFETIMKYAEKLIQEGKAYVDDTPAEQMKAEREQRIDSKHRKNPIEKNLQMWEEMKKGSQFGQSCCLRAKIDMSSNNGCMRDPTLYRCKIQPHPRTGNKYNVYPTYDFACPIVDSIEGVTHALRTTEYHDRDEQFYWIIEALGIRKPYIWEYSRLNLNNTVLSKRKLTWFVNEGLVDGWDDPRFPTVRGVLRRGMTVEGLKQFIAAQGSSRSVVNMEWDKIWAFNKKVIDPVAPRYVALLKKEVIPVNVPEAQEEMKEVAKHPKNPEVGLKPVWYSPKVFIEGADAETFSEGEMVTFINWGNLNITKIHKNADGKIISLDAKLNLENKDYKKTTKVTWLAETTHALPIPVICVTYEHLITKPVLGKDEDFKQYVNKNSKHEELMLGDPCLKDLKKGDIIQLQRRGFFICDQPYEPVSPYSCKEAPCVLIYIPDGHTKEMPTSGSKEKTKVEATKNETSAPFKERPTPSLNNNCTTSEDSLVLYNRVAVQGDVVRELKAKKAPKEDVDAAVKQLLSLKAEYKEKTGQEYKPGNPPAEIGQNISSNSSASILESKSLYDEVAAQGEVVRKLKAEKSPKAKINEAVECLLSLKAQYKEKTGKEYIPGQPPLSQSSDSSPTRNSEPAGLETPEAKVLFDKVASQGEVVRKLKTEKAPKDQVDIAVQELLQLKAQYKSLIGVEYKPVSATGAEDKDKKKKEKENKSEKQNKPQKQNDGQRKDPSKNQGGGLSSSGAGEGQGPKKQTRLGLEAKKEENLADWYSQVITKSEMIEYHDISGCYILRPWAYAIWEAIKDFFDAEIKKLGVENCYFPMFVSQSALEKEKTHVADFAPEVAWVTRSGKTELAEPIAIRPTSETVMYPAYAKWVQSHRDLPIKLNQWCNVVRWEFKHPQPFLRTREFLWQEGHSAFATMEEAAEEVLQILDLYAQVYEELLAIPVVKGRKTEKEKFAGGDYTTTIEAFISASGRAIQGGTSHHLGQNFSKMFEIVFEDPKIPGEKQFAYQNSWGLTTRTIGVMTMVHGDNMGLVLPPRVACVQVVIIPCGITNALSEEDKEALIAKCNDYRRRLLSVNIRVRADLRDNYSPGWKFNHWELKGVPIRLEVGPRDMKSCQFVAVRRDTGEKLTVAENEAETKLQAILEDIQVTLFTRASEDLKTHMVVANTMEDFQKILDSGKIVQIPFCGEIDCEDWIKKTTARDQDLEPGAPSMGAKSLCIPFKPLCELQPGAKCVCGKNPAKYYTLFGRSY

Molecule | binding [1] | binding [2]
KARS1 (from UniProt Q15046 1-597) | binds | –
B1 | – | binds
B2 | – | binds
